Experimental data published in paper PMC7721357.
These are yes or no findings as the source states them, for the method shown. Binding seen in cells or lysates may run through a third protein.

Biological target: T1, endogenous TRAF6 of mouse cells (mouse (endogenous in BMDMs, Raw264.7, splenocytes)) (UniProt P70196)
T1 sequence: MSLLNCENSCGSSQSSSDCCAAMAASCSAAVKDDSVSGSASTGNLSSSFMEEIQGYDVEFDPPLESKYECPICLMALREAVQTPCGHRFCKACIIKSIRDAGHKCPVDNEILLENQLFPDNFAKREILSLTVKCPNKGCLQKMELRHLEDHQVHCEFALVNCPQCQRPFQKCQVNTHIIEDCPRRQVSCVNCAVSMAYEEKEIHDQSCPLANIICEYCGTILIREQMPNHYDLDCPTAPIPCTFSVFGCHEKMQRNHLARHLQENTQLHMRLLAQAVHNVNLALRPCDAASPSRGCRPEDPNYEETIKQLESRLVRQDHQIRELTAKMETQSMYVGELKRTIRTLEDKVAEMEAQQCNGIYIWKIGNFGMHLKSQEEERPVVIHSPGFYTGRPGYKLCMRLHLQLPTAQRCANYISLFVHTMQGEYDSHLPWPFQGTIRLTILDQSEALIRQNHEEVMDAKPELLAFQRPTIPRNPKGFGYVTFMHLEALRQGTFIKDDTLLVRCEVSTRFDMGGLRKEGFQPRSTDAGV
Test: co-IP; only the binder purified

With “rRv2626c-DN (dominant-negative form, E125Q and H126Q) (from UniProt P9WJA3 123-131)” the binding was “no binding (tested: 2.5 μg/ml)”.
